# Measurements: PubChem BioAssay AID624297 (National Center for Advancing Translational Sciences (NCATS), 2012)
# “And” between values parts separate entries of the source, which are not always exact repeats. Identical values can stand only once. Out of some 340,000 compounds screened, about 6,200 (1.8%) were called active. The shares of active, inactive and inconclusive entries below differ from those in the screen. Calls come from the whole dose curve; as a rule, active = well fitted activation curve with a large enough effect; inconclusive = small, poorly fitted or top-dose-only effect; inactive = no such curve, though single readings can be large or run the other way. Potencies of inconclusive entries are doubtful fits and often do not repeat.
# Assay: A quantitative high throughput screen for small molecules that induce DNA re-replication in SW480 colon adenocarcinoma cells. For re-replication activation: % of control where 0% means no effect. Note: nearly all actives have a fitted effect of over 55% in size.
# Conditions: Hoechst DNA content imaging, 48 h; re-replication activation: at 46.1 µM (top of the series) unless noted
# Summary of the method: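 Hoechst fluorescence of nuclei (405 nm excitation, 500-530 nm emission) measured by plate-scanning imager after 48 hr compound exposure at 37 C; re-replication scored as increased number of nuclei with elevated intensity.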
# Potency is the fitted concentration of half-maximal effect.
SMILES,Potency,re-replication activation
O=C(CCCCCn1c(=S)[nH]c2ccc(N3CCOCC3)cc2c1=O)NCc1ccc(Cl)cc1,"inconclusive: 25.9 µM [activator, partial curve, poor fit]",
CCOC(=O)c1c(NC(=O)CCl)sc(C(=O)N(CC)CC)c1C,"inconclusive: 18.4 µM [activator, single point]",
CCCC(=O)Nc1cc(Cl)ccc1C,"inconclusive: 2.06 µM [activator, partial curve, poor fit]",
Cc1sc(N/N=C/c2ccco2)nc1-c1ccccc1,,inactive: 3.04%
Oc1ccccc1/C=N/Nc1ccccc1,,inactive: 3.13%
CC1CCN(CC(O)COc2ccc(C(=O)c3ccccc3)cc2)CC1 (configuration not stated),"inconclusive: 23.1 µM [activator, single point]",
Cc1ccc(C(=O)Nc2cccc(C(=O)N/N=C/c3ccc(F)cc3)c2)cc1,,inactive: -9.23%
CC(C)(C)C(=O)Nc1ccc(C(=O)CSc2nnc(C3CC3)n2C2CC2)cc1,,inactive: 17.7%
CC1=C(C(=O)OCc2ccccc2)C(c2ccc3ccccc3c2)NC(=O)N1CCCC(=O)O (configuration not stated),,inactive: -0.882%
Cc1cc(O)ccc1Nc1nc2ccccc2nc1Nc1ccc(O)cc1C,"inconclusive: 7.31 µM [activator, single point]",
C[C@@]12C(=O)Nc3cc(F)ccc3C(=O)N1[C@H]1c3cc(Br)ccc3OC[C@@H]1[C@@H]2c1ccccc1,"inconclusive: 29.1 µM [activator, single point]",
O=C(Cn1cnc2c(cnn2-c2ccc(F)cc2)c1=O)NCCc1ccccc1,"inconclusive: 2.31 µM [activator, partial curve, poor fit]",
Cc1nn(-c2cccc(Cl)c2)c2nc(-c3ccco3)cc(C(=O)O)c12,,inactive: -4.79%
O=C(Nc1ccccc1)c1ccc(S(=O)(=O)Nc2cccc(O)c2)cc1,"inconclusive: 0.517 µM [activator, full curve, poor fit]",
CCC(=O)c1cc2c(cc1NC(=O)c1ccccc1)OCCO2,"inconclusive: 29.1 µM [activator, single point]",
Cc1nonc1C(=O)N/N=C/c1ccc(O)cc1O,"inconclusive: 2.31 µM [activator, full curve, poor fit]",
CC(C)CNS(=O)(=O)c1ccc(OCC(=O)NCc2ccco2)cc1,"inconclusive: 6.51 µM [activator, partial curve, poor fit]",
CCOC(=O)c1ccc(C(=S)N2CCCC2)cc1,,inactive: 5.96%
COC(=O)[C@H]1C[C@H]2[C@@H]3CC[C@H]4C[C@@H](OC)CC[C@]4(C)[C@H]3CC[C@]2(C)[C@@]2(CCCO2)O1,,inactive: 3.17%
CCCCc1cc(=O)oc2cc(OCC(=O)N3CCC(C(=O)O)(c4ccccc4)CC3)ccc12,"inconclusive: 29.1 µM [activator, partial curve, poor fit]",
CN1CCC(=C2c3ccccc3C=Cc3ccccc32)CC1,"inactive and inconclusive: 29.1 µM [activator, single point]",
COc1ccc(Cn2c(SCC#N)nc3ccc(N4CCOCC4)cc3c2=O)cc1,,inactive: 1.47%
Cc1sc2ncnc(Sc3nnnn3-c3ccc(Cl)cc3)c2c1C,"inconclusive: 20.6 µM [activator, single point]",
COc1ccc(N2CCN(S(=O)(=O)CCNC(=O)/C=C/c3ccccc3)CC2)cc1,,inactive: -1.98%

SMILES,Potency,re-replication activation
O=c1ccc(/C=C/c2ccccc2)nn1Cc1ccc(F)cc1,,inactive: 3%
COc1cccc(/C=C/C(=O)OCC(=O)c2ccc(C)c(C)c2)c1OC,"inconclusive: 6.51 µM [activator, single point]",
Cc1onc(-c2c(Cl)cccc2Cl)c1C(=O)Nc1nc(C(C)(C)C)cs1,"inconclusive: 18.4 µM [activator, single point]",
O=C(NCCCN1CCCC1)c1ccc2c(c1)N(Cc1ccccc1)CCS2,"inconclusive: 29.1 µM [activator, single point]",
CCc1ccc2c(CN3CCc4ccccc43)cc(=O)oc2c1,,inactive: 3.51% [at 9.22 µM]
COc1ccc(Br)cc1CNC(=O)CCC(=O)N1CCSc2ccccc21,,inactive: 4.02%
CC1(C(=O)NC2CCCCCCC2)CCC(=O)N1Cc1cccs1 (configuration not stated),,inactive: -3.49%
COc1ccc(NC(=O)C2C3C=CC4(O3)C2C(=O)N(CCN2CCCCC2C)C4C(=O)NC2CCCCC2)cc1 (configuration not stated),,inactive: -1.19%
CCOC(=O)C1=C(C)OC(N)=C(C#N)C1c1ccsc1 (configuration not stated),,inactive: -1.49%
O=C(Cn1nnc(-c2ccccc2NC(=O)c2ccco2)n1)Nc1ccccc1,"inconclusive: 32.6 µM [activator, partial curve, poor fit]",
Cc1c(NC(=O)c2cc3c(=O)n4ccccc4nc3s2)c(=O)n(-c2ccccc2)n1C,,inactive: -2.14%
O=C(Nc1cccc(C(=O)O)c1)/C(=C\c1ccc2c(c1)OCO2)NC(=O)c1ccco1,,inactive: -18.4%
CC(C)CN(CCNC(=O)CN1N=C(c2ccc(Cl)cc2)CCC1=O)CC(C)C,,inactive: -2.16%
Cc1ccc(S(=O)(=O)NC(=NC(C)C)c2ccccc2)cc1,"inconclusive: 6.51 µM [activator, single point]",
Cc1nn(CCOc2cccc(Br)c2)c(C)c1[N+](=O)[O-],,inactive: -6.63%
COc1ccc(-c2ccc3c(c2)C2CC3CCN2C(=O)C2CCCCC2)cc1 (configuration not stated),"inconclusive: 0.82 µM [activator, full curve, poor fit]",
Cc1ccc(C(=O)c2cc([N+](=O)[O-])ccc2N2CCOCC2)cc1,active: 3.66 µM,
COc1ccc(CC2(CO)CCN(S(=O)(=O)c3cccc4cccnc34)CC2)cc1,,inactive: -3.35%
CC1Cc2ccccc2N1C(=O)CN1CCC(n2nnc3cc(C(F)(F)F)ccc32)CC1 (configuration not stated),,inactive: 10.1%
CCc1ccc2[nH]c(=O)c(C3C(C#N)=C(N)Oc4c3ccc3cccnc43)cc2c1 (configuration not stated),"inconclusive: 23.1 µM [activator, single point]",
O=C(c1ccc([N+](=O)[O-])o1)N(Cc1nnc(-c2ccccc2Cl)o1)C1CC1,"inconclusive: 18.4 µM [activator, single point]",
Cc1cc(C)nc(-n2nc(C)cc2NC(=O)CNC(C)c2ccccc2)n1 (configuration not stated),,inactive: 3.81%
COc1ccc(NC(=O)CSc2ccccc2)cn1,"inconclusive: 29.1 µM [activator, single point]",
COc1ccccc1N1CCN(C(=O)C2c3ccccc3Oc3ccccc32)CC1,active: 5.8 µM,

SMILES,Potency,re-replication activation
COc1ccccc1/C=N/NC(=O)c1cccc(NC(=O)c2ccccc2Cl)c1,,inactive: -0.264%
CCn1c(SCc2ccccc2Cl)nc2nc3c(cc2c1=O)CCCC3,"inconclusive: 18.4 µM [activator, partial curve, poor fit]",
O=C(c1c(Cl)nc2sccn12)N1CCN(c2cccc(Cl)c2)CC1,active: 2.91 µM,
NS(=O)(=O)c1ccc(N=Nc2ccc(O)c3ncccc23)cc1,"inconclusive: 6.51 µM [activator, single point]",
COc1ccc(NC(=O)NC(C)C2CC3CCC2C3)cc1 (configuration not stated),,inactive: -0.475%
Cc1nnc(C)c2c(C)n(C(c3ccccc3)c3ccccc3)c(C)c12,"inconclusive: 29.1 µM [activator, partial curve, poor fit]",
O=S(=O)(c1cccc(F)c1)N1CCN(Cc2ccc3c(c2)OCO3)CC1,"inconclusive: 25.9 µM [activator, partial curve, poor fit]",
CN(C(=O)COC(=O)c1cccc(S(=O)(=O)N(C)c2ccccc2)c1)C1CCCCC1,,inactive: -24.7%
Cc1nc(-c2ccccc2)ccc1C(=O)O,,inactive: 4.9% [at 1.84 µM]
COc1ccc(CNC(=S)N/N=C/c2ccc(O)c(OC)c2)cc1,,inactive: -7.09%
Cc1cc(S(=O)(=O)N(Cc2ccc(F)cc2)CC2CCCO2)ccc1-n1cnnn1 (configuration not stated),,inactive: -3.73%
O=C(Nc1ccccn1)C1CCN(S(=O)(=O)c2ccc(Cl)cc2)CC1,"inconclusive: 29.1 µM [activator, partial curve, poor fit]",
COn1c(SCc2cccc(Cl)c2)nc2ccccc2c1=O,,inactive: 0.517%
CC1CCCN(CCCN2C(=O)C3C(C(=O)Nc4cccc(Cl)c4)C4C=CC3(O4)C2C(=O)NC2CCCCC2)C1 (configuration not stated),"inconclusive: 20.6 µM [activator, single point]",
COc1ccccc1N1CCN(C(=O)C2CCCCN2S(=O)(=O)c2ccc(C)cc2)CC1 (configuration not stated),"inconclusive: 23.1 µM [activator, single point]",
COc1ccccc1NC(=O)C(C)OC(=O)CCCc1c[nH]c2ccccc12 (configuration not stated),"inconclusive: 18.4 µM [activator, single point]",
CCc1ccc(NC(=O)CSc2n[nH]c(C)c2[N+](=O)[O-])cc1,"inconclusive: 29.1 µM [activator, single point]",
COCCCn1c(=N)c(C(=O)NC2CCCCC2)cc2c(=O)n3ccccc3nc21,active: 5.17 µM,
CN(C)S(=O)(=O)c1ccc(NC(=O)C2CC(=O)N(Cc3ccccc3)C2)cc1 (configuration not stated),"inconclusive: 16.4 µM [activator, single point]",
COc1cccc(-c2noc(-c3ccc(Cl)nc3)n2)c1,"inconclusive: 16.4 µM [activator, single point]",
Cc1ccc(NC2CCCN(C(=O)CCc3ccncc3)C2)cc1C (configuration not stated),"inconclusive: 20.6 µM [activator, partial curve, poor fit]",
C[C@H](NC(=O)c1ccco1)C(=O)NCCc1ccc(S(N)(=O)=O)cc1,"inconclusive: 23.1 µM [activator, partial curve, poor fit]",
Cc1ccc(-c2nc3cc(N)ccc3o2)cc1,,inactive: -7.44%
Fc1ccccc1CNc1nc(-c2cccnc2)nc2ccccc12,"inconclusive: 29.1 µM [activator, single point]",
